Laboratory results: PubChem BioAssay AID330 (DTP/NCI, 2004)
The list shows only some results of the screen, not a fair sample: it gathers tests that were run many times, whatever their T/C, doses with no T/C, and many T/C values between a quarter and a half above the control. Other doses and runs of a compound stand elsewhere. T/C is the treated group as % of the vehicle group. Some entries give survivors of the animals treated and no T/C: the source files T/C as zero there, which appears to mark a toxic dose or a test without result, not a measured value. Some survivor counts are full or nearly so, which does not show that the dose was tolerated: the source hardly ever lists a survival T/C far under the control, and the zero likely stands for such cases as well. Survivors were counted at the toxicity check, usually on the fifth day, unless a day is given; later deaths do not show. Schedule codes are those of the source, taken here to give the interval after Q, in days (D) or hours (H), and the number of doses after X. Some entries hold several experiments; the values are given in rising order. For survival time, the PubChem record calls one and a half times the control and up active, and a quarter to a half above the control has no call in these data; cut-offs in other NCI protocols can differ. Some T/C values carry the count of animals alive at the toxicity check (mostly the fifth day); without a count, all were alive then. Brackets with × give the number of equal values in this list.

Tested on: P388 leukemia ip, CD2F1 mice, survival T/C
Assay: NCI In Vivo Anticancer Drug Screen. Data for tumor model P388 Leukemia (intraperitoneal) in CD2F1 (CDF1) mice
Conditions: T/C endpoint: median survival time, higher T/C = longer survival
[1] = dose: 100.0 mg/kg/injection, schedule: Q01DX005 (ip), vehicle: saline with Tween-80
[2] = dose: 200.0 mg/kg/injection, schedule: Q01DX005 (ip), vehicle: saline with Tween-80
[3] = dose: 120.0 mg/kg/injection, schedule: Q01DX005 (ip), vehicle: saline with Tween-80
[4] = dose: 240.0 mg/kg/injection, schedule: Q01DX005 (ip), vehicle: saline with Tween-80
[5] = dose: 400.0 mg/kg/injection, schedule: Q04DX003 (ip), vehicle: saline
[6] = dose: 200.0 mg/kg/injection, schedule: Q01DX009 (ip), vehicle: saline with Tween-80
[7] = dose: 50.0 mg/kg/injection, schedule: Q01DX009 (ip), vehicle: saline with Tween-80
[8] = dose: 100.0 mg/kg/injection, schedule: Q01DX009 (ip), vehicle: saline with Tween-80
[9] = dose: 400.0 mg/kg/injection, schedule: Q01DX009 (ip), vehicle: saline with Tween-80

For `O=C1C=C[C@H](O)[C@@]2(CO)O[C@@H]12`, the T/C (dose: 5.0 mg/kg/injection, schedule: Q04DX002 (ip), vehicle: saline with Tween-80) was 126 % of control, the T/C (dose: 5.0 mg/kg/injection, schedule: Q04DX002 (ip), vehicle: saline) was 130 % of control and the T/C (dose: 10.0 mg/kg/injection, schedule: Q04DX002 (ip), vehicle: saline with Tween-80) was 140 % of control. For the same compound, the T/C (dose: 10.0 mg/kg/injection, schedule: Q04DX002 (ip), vehicle: saline) was 132 % of control, the T/C (dose: 20.0 mg/kg/injection, schedule: Q04DX002 (ip), vehicle: saline) was 141 % of control [4 of 6 alive] and the survivor count (dose: 40.0 mg/kg/injection, schedule: Q04DX002 (ip), vehicle: saline) was 0 of 6. For the same compound, the survivor count (dose: 50.0 mg/kg/injection, schedule: Q04DX002 (ip), vehicle: saline with Tween-80) was 0 of 6, the survivor count (dose: 100.0 mg/kg/injection, schedule: Q04DX002 (ip), vehicle: saline with Tween-80) was 0 of 6 and the survivor count (dose: 200.0 mg/kg/injection, schedule: Q04DX002 (ip), vehicle: saline with Tween-80) was 0 of 6.

`c1ccc(NN=Nc2ncnc3nc[nH]c23)cc1` was tested, and the survivor count [1] was 1 of 6 and the survivor count [2] was 0 of 6.

With `CC1COS(=O)(=O)CS(=O)(=O)O1` (stereo unspecified) the T/C [3] was 125 % of control and the survivor count [4] was 1 of 6.

For `O=C1OCC2C3C=CC(O3)C12` (stereo unspecified), the survivor count [5] was 1 of 6.

In the case of `O=[N+]([O-])c1ccc(Sc2ncnc3c2ncn3C2OC(CO)C(O)C2O)c2nonc12` (stereo unspecified), the T/C (dose: 12.5 mg/kg/injection, schedule: Q01DX009 (ip), vehicle: suspension in saline) is reported as 127 % of control, the T/C (dose: 25.0 mg/kg/injection, schedule: Q01DX009 (ip), vehicle: suspension in saline) is reported as 125 and 137 % of control and the survivor count (dose: 100.0 mg/kg/injection, schedule: Q01DX009 (ip), vehicle: suspension in saline) is reported as 3 of 5 and 6 of 6. The survivor count (dose: 200.0 mg/kg/injection, schedule: Q01DX009 (ip), vehicle: suspension in saline) was 2 of 6.

`O=C(O)c1c[nH]c2cc(OCc3ccc(Cl)c(Cl)c3)ccc2c1=O` was tested, and the survivor count (dose: 100.0 mg/kg/injection, schedule: Q01DX009 (ip), vehicle: saline) was 6 of 6 and the survivor count (dose: 200.0 mg/kg/injection, schedule: Q01DX009 (ip), vehicle: saline) was 6 of 6.

For `OC(c1ccccc1)(C(F)(F)F)C(F)(F)F`, the survivor count [6] was 4 of 6.

For `C1=CN2CC(c3ccccc3)=NNC2c2ccccc21` (stereo unspecified), the survivor count (dose: 400.0 mg/kg/injection, schedule: Q04DX002 (ip), vehicle: Klucel (hydroxypropylcellulose) (HPC)) was 0 of 6.

In the case of `C=C(C)C12CC(C)C34OC(CCCCCCCCCCC)(OC1C3C1OC1(CO)C(O)C1(O)C(=O)C(C)=CC14C)O2` (stereo unspecified), the survivor count (dose: 0.25 mg/kg/injection, schedule: Q01DX009 (ip), vehicle: other) is reported as 6 of 6, the survivor count (dose: 0.5 mg/kg/injection, schedule: Q01DX009 (ip), vehicle: other) is reported as 0 of 6 and the survivor count (dose: 1.0 mg/kg/injection, schedule: Q01DX009 (ip), vehicle: other) is reported as 0 of 6. The T/C (dose: 100.0 micrograms/kg/injection, schedule: Q01DX009 (ip), vehicle: other) was 126 % of control and the T/C (dose: 200.0 micrograms/kg/injection, schedule: Q01DX009 (ip), vehicle: other) was 131 % of control.

`Oc1ccc(Cl)cc1CN1CCN(Cc2cc(Cl)ccc2O)CC1` was tested, and the survivor count (dose: 60.0 mg/kg/injection, schedule: Q01DX005 (ip), vehicle: saline with Tween-80) was 6 of 6, the survivor count [3] was 6 of 6 and the survivor count [4] was 6 of 6.

In the case of `S=C(S)N1CCCCCC1`, the survivor count (dose: 240.0 mg/kg/injection, schedule: Q01DX005 (ip), vehicle: suspension in saline) is reported as 4 of 6.

In the case of `CC(C)(C)N=O`, the survivor count (dose: 400.0 mg/kg/injection, schedule: Q01DX001 (ip), vehicle: saline with Tween-80) is reported as 0 of 6.

`COc1cccc2c1C(=O)c1c(O)c3c(c(O)c1C2=O)C[C@@](O)(C(C)O)C[C@@H]3OC1CC(NCc2ccccc2)C(O)C(C)O1` (stereo partly specified) was tested, and the T/C (dose: 0.78 mg/kg/injection, schedule: Q01DX009 (ip), vehicle: water) was 131 % of control, the survivor count (dose: 12.5 mg/kg/injection, schedule: Q01DX009 (ip), vehicle: water) was 6 of 6 and the survivor count (dose: 25.0 mg/kg/injection, schedule: Q01DX009 (ip), vehicle: water) was 6 of 6.

For `COc1ccc(C(c2c(O)c3ccccc3oc2=O)N2CCCC2)cc1` (stereo unspecified), the survivor count [3] was 3 of 6 and the survivor count [4] was 1 of 6.

With `CCCCCCCCCCCC1N=C(N)N=C(N)N1c1cccc(Br)c1` (stereo unspecified) the survivor count (dose: 50.0 mg/kg/injection, schedule: Q01DX005 (ip), vehicle: saline with Tween-80) was 0 of 5, the survivor count [1] was 3 of 5 and the survivor count [2] was 0 of 5.

`O=CN1CCCC1Cc1ccccc1` (stereo unspecified) was tested, and the survivor count (dose: 200.0 mg/kg/injection, schedule: Q01DX001 (ip), vehicle: Klucel (hydroxypropylcellulose) (HPC)) was 3 of 6.

In the case of `CC(C)C[N+]1(Cc2ccc(Cl)cc2Cl)CCOCC1`, the survivor count [5] is reported as 1 of 6.

With `COC(=O)c1[se]c(=[Se])[se]c1C(=O)OC` the survivor count (dose: 100.0 mg/kg/injection, schedule: Q01DX001 (ip), vehicle: Klucel (hydroxypropylcellulose) (HPC)) was 4 of 6 and the survivor count (dose: 400.0 mg/kg/injection, schedule: Q01DX001 (ip), vehicle: Klucel (hydroxypropylcellulose) (HPC)) was 1 of 6.

With `CC1(C)CN(C2CCCCC2)CN2C1OCC2(C)C` (stereo unspecified) the T/C (dose: 40.0 mg/kg/injection, schedule: Q01DX009 (ip), vehicle: saline with Tween-80) was 125 % of control and the T/C (dose: 160.0 mg/kg/injection, schedule: Q01DX009 (ip), vehicle: saline with Tween-80) was 125 % of control.

With `O=C(N/N=C\c1cc(Br)cc(Br)c1O)N/N=C/c1cc(Br)cc(Br)c1O` the T/C (dose: 12.5 mg/kg/injection, schedule: Q01DX009 (ip), vehicle: saline with Tween-80) was 97, 100 (2×), 105 (2×), 153 % of control, the T/C (dose: 25.0 mg/kg/injection, schedule: Q01DX009 (ip), vehicle: saline with Tween-80) was 99, 103, 106, 123, 127, 146, 154 % of control and the T/C (dose: 40.0 mg/kg/injection, schedule: Q01DX005 (ip), vehicle: suspension in saline) was 133 % of control. The T/C [7] was 107, 109, 133, 138, 139, 143, 145 % of control, the T/C (dose: 80.0 mg/kg/injection, schedule: Q01DX005 (ip), vehicle: suspension in saline) was 137 % of control and the T/C (dose: 100.0 mg/kg/injection, schedule: Q01DX009 (ip), vehicle: distilled water + Tween-80) was 143 % of control. For the same compound, the T/C [8] was 123, 136, 138, 139, 154 (2×), 158 % of control, the T/C (dose: 200.0 mg/kg/injection, schedule: Q01DX009 (ip), vehicle: distilled water + Tween-80) was 136 % of control [5 of 6 alive] and the T/C [6] was 132, 140, 142, 150, 168 % of control. The survivor count [6] was 5 of 5 and 6 of 6, the survivor count (dose: 280.0 mg/kg/injection, schedule: Q01DX005 (iv), vehicle: suspension in saline) was 0 of 6 and the T/C [9] was 126, 132, 140 [4 of 5 alive], 189 % of control. For the same compound, the survivor count [9] was 6 of 6.

For `COC1OC(CNC(=O)N(CCCl)N=O)C(O)C(O)C1O` (stereo unspecified), the T/C (dose: 0.78 mg/kg/injection, schedule: Q01DX009 (ip), vehicle: saline) was 146 % of control.

With `Cc1ncc(C[n+]2cccc(CCO)c2C)c(N)n1` the survivor count [5] was 0 of 6.

`COC1=CC(=O)C(OC)=C(OC)C1=O` was tested, and the T/C [7] was 126 [5 of 6 alive] and 133 % of control, the survivor count [8] was 0 of 6 and the survivor count [6] was 0 of 6. The survivor count [9] was 0 of 6.

With `C[C@]12C=CC(=O)NC[C@@H]1CC[C@@H]1[C@@H]2CC[C@]2(C)[C@@H](OC(=O)COc3ccc(N(CCCl)CCCl)cc3)CC[C@@H]12` the survivor count [4] was 6 of 6.
